# Primary screen of a compound library

From ChEMBL document CHEMBL3988442, “University of Dundee, Small-Polar-MMV Screening Library” (2021).

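Assay on Mycobacterium tuberculosis, filed only as a heat shock assay from Cornell; the read-out is not stated. The concentration is filed as 10 mM, unlikely as a test dose, so the dose is not known. Higher reads as stronger inhibition (inferred: compounds with an IC50 in retests scored well above the rest). About 69,000 compounds were tested under these conditions; 1.4% (about 930) showed 50% or more at least once.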

Results are given as percent effect. The controls that fix the scale are not given in the record; negative values are as filed. Compounds were drawn at random from those tested, without regard to their results.

- COc1ncccc1NC(=O)C1CCOCC1 : -12.34%
- CCn1cnnc1C1CCN(C(=O)c2cccc3c2ccn3C)CC1 : 9.608%
- CC(C)n1cc(C(=O)N2CCN(c3cccc(C(F)(F)F)c3)CC2)cn1 : 12.71%
- Cc1cccc(CCC(=O)Nc2cccnc2N2CCC(O)CC2)c1 : 14.92%
- Cn1nnnc1SCCNC(=O)C1CCN(C(=O)C2CC2)CC1 : -0.6329%
- CC(C)S(=O)(=O)CC(=O)N1CCCC(n2ccnc2)C1 (stereo not drawn) : -0.4376%
- O=C(O)C(F)(F)F.O=C(O)C(F)(F)F.[H][C@@]12CCN(C)C[C@]1(C(=O)NCCc1ccccn1)CCO2 : -28.13%
- Cc1cc(C(N)=O)nc(C2(C)CCCN2Cc2cnn(C)c2C)n1 (stereo not drawn) : 3.516%
- Cc1cnn(CC2CCCN2Cc2cc(C)no2)c1 (stereo not drawn) : 19.94%
- O=C1CN(C(=O)C2CN(c3ccc(F)cc3)CCO2)CCN1 (stereo not drawn) : 18.45%
- Cn1cc(CN2CCC(F)(F)C3(CCN(c4cccc(F)c4)C3)C2)cn1 (stereo not drawn) : -6.883%
- O=c1nc(SCc2ccncc2)c2c(n1CCO)CCCC2 : -10.67%
- O=C(CC1CC1)N1CCN(Cc2ccncc2)c2ncccc2C1.O=C(O)C(F)(F)F.O=C(O)C(F)(F)F : -13.65%
- COc1ccc2c(c1)OCC(Cc1ccnc(N)n1)C2 (stereo not drawn) : -6.954%
- [H][C@]12CCN(C(=O)CCC(C)C)CC[C@@]1([H])S(=O)(=O)CCN2S(C)(=O)=O : -4.175%
- Cc1ccc(C2CSCCN2C(=O)c2ccnc(N(C)C)c2)o1 (stereo not drawn) : -31.71%
- Cc1cccc(NC(=O)CN(C)C(=O)c2scnc2C)n1 : 7.171%
- COc1cccc(CCC2CCCN(C(=O)c3ccc(OC)o3)C2)c1 (stereo not drawn) : -15.85%
- COC(=O)C(NC(=O)COC1CCCC1)c1cc(F)ccc1F (stereo not drawn) : -31.99%
- COc1ccc(CNC(=O)NCc2c(C)cc(C)[nH]c2=O)cc1 : 2.817%
- COCC(=O)N1CCC(c2nc3ccc(-c4ccncc4)cn3n2)CC1.O=C(O)C(F)(F)F : -28.21%
- Cc1cnn(CC2CN(c3cnc4ccccc4n3)CCO2)c1 (stereo not drawn) : 103.1%
- Cl.Clc1cccnc1OC1CCNCC1 : -8.574%
- [H][C@@]12CN(C(=O)c3cccc(C)n3)C[C@]1([H])[C@@H]2CC(=O)N1CCCC1 : 5.144%
- Oc1nc(-c2cnccn2)nc2c1CCN(Cc1ccccn1)C2 : -5.128%
- COC(=O)c1ncccc1N1CCC(C(O)c2ccccc2)CC1 (stereo not drawn) : -1.727%
- NC(=O)CN(CC(=O)NCc1cc(F)cc(F)c1)C1CCCC1 : -45.49%
- CN(C)C(=O)N1CCC2(C1)CN(c1cccnc1)C(=O)CN2C (stereo not drawn) : -12.83%
- CC(C)OCCCNC(=O)c1c(-n2cnnn2)sc2c1CCCC2 : -10.27%
- CCN(Cc1cn(CC2CCNCC2)nn1)CC1CCCO1 (stereo not drawn) : -16.68%
- NC(=O)c1ccccc1Oc1cccc(C2CCCNC2)n1 (stereo not drawn) : -6.26%
- O=C(O)C(F)(F)F.O=C(O)C(F)(F)F.[H][C@@]12CCN(Cc3cnn(C)c3)[C@]1([H])CC[C@H](C(=O)NC1CC1)O2 : -24.37%
- Cc1ccc(CCCC(=O)N2CCC(=O)Nc3cccnc32)s1 : -10.25%
- CCCc1cnc(C)nc1N1CCC(Cc2cccc(C(N)=O)c2)C1 (stereo not drawn) : -12.88%
- Cc1cc(-c2cnc(N3CCCCCC3)nc2-c2cccnc2C)on1 : 41.55%
- COc1ccc(CN2CCCC(Nc3cccc(F)c3)C2)cc1O (stereo not drawn) : 11.24%
- CN(CCOc1ccc(Cl)cc1)Cc1ccc(S(=O)(=O)N(C)C)o1 : 27.85%
- O=C(O)C(F)(F)F.[H][C@]12CC[C@@]3(N=C(C)N(C)C3=O)[C@@]1([H])CN(CC(C)C)C2 : -6.919%
- [H][C@@]12COC[C@@H](CC(=O)NCCOC)[C@]1([H])CN(C(=O)c1cnccn1)C2 : -28.99%
- [H][C@@]12CS(=O)(=O)C[C@]1([H])N(C(=O)c1cn3ccsc3n1)CCN2C(=O)CC : -4.83%
- Cc1nc(N)nc(N2CCOc3ccc(CO)cc3C2)c1C : -32.38%
- COCC1CC2(CCN(C(N)=O)CC2)CN1Cc1csc(C)n1.O=C(O)C(F)(F)F (stereo not drawn) : -17.09%